Data taken from ChEMBL document CHEMBL3988442, “University of Dundee, Small-Polar-MMV Screening Library” (2021).

Values are the deposited “Percent Effect”, in %.
How 0% and 100% were set is not recorded. Most values in the screen are low, and negative values occur.
The compounds are a random part of those screened.
Two or more numbers in one place are separate tests of the same structure; such repeats can differ widely.

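Phenotypic screen: M. tuberculosis growth, glucose 7H9 medium, 3 days; the read-out is not stated. Compounds at 50 µM. The record gives no direction; compounds that gave an IC50 in retests scored well above the rest, so higher reads as more growth inhibition. About 69,000 compounds were tested under these conditions; 1.1% (about 760) showed 50% or more at least once.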

structure,percent effect
Cc1ccc(CN2CC[C@H](c3nnc(COc4ccc(F)cc4)o3)C2)o1,3.121 & 42.99
O=C(NCc1ccccc1CO)Nc1ccc2c(c1)CCO2,-4.117
CCc1nc(C)c(CN2CCOC(Cc3cccc4ccccc34)C2)[nH]1 (stereo not drawn),7.91 & -9.311
CN(C(=O)c1ccc[nH]1)C1CC(=O)N(Cc2ccccc2)C1=O (stereo not drawn),-0.2899 & 21.56
Cc1ncsc1CCC(=O)NCc1cc2n(n1)CCNC2,1.197 & -1.364
[H][C@@]12CCN(C(=O)c3ccsc3)C[C@]1(c1nc(C)no1)CCO2,29.48 & -1.911
Cc1cccc2[nH]c(-c3cn(C4CCNCC4)nn3)nc12,11.63
COc1cccc(CCC2CCCN(C(=O)c3ccc(=O)n(C)n3)C2)c1 (stereo not drawn),15.44
CCc1nnc2n1CCN(c1nc3ccccc3o1)C2,-2.632
CC(C)(O)CN1CCC(=O)N(Cc2ccco2)Cc2cc(F)ccc21,5.447
CCc1nccn1CC(=O)Nc1cccc(C(=O)N(C)C)c1,-18.85
CCc1[nH]c2c(CNc3nccc(N)n3)cc(C)cc2c1C,42.24
CC(C)c1cccc(NC(=O)N2CC(N(C)C)C2)c1,3.483 & 20.81
[H][C@]12CCN(C(=O)NCCc3ccccc3)CC[C@@]1([H])S(=O)(=O)NC2,-4.302 & -5.582
Cc1cccc2c(=O)c(C(=O)N3CCCC4(CN(C)C(=O)O4)C3)c[nH]c12 (stereo not drawn),-16.97
COCC(=O)NCc1cnc(C)nc1-c1cn(C)c2ccc(OC)cc12,18.19
CC(C)(C)c1ncc(C(=O)N2CCC(N3CCSCC3)CC2)c(O)n1,-19.99
CC(C)N(CCCNC(=O)C1CCOCC1)S(C)(=O)=O,-29.59
Cc1ccccc1C(=O)NC[C@@H]1CCN(C(=O)c2cccn2C)C[C@H]1O,1.919 & 0.2524
CCn1ncc(S(=O)(=O)NC(C)c2cc(OC)ccc2OC)c1C (stereo not drawn),12.24 & -16.77
O=C(CSc1ccc(F)c(F)c1)NS(=O)(=O)c1ccc2c(c1)OCCO2,-11.88
Cc1ccc(Oc2ncccc2C(=O)N(C)CCCN(C)C)c(C)c1,-15.36
COc1c(C(=O)NCC(C)C)nnn1Cc1ccccc1,15.3
CC(C)N1CCC2(CC1)CC(NCc1ccccn1)c1ccccc1O2.O=C(O)C(F)(F)F.O=C(O)C(F)(F)F.O=C(O)C(F)(F)F (stereo not drawn),0.8144
CN(C)C(=O)COCC1CN(Cc2ccco2)Cc2ncn(C)c21.O=C(O)C(F)(F)F.O=C(O)C(F)(F)F (stereo not drawn),-12.48
CC(CNC(=O)N1CCN(CC(F)F)CC1)Cc1cccs1 (stereo not drawn),9.616
Cc1cc(C)n(CC2CCCN2C(=O)CCCNc2ncccn2)n1 (stereo not drawn),-32.29
O=C(NCCCN1CCOCC1)C1CCCN(Cc2ccco2)C1 (stereo not drawn),-11.42
COc1ccc(-n2ccc(C(=O)NCCN3CCC(C)CC3)n2)cc1,20.12
CC(=O)Nc1nc(CN2CCCC2c2cnn(C)c2)cs1 (stereo not drawn),-1.046
Cc1ccc(CN2CCN(c3ncccc3Cl)CC2CCO)cc1 (stereo not drawn),16.97
CC(C)c1csc(C(=O)N2CCCC(Cn3cc(CO)nn3)C2)n1 (stereo not drawn),-3.249
Cn1c(N)nnc1SC1CCCN(c2ccccc2)C1=O (stereo not drawn),9.32
Cc1cnn(CC2CCCN2Cc2coc(-c3cccc(F)c3)n2)c1 (stereo not drawn),-7.815
CCOCCS(=O)(=O)Cc1ccn(-c2cccc(F)c2)n1,4.65 & 23.31
CCN1CCN(C(=O)COCc2cccc(OC)c2)CC1,15.46
COC(=O)[C@H](C)NC(=O)COc1nn(C)c2nc(C)cc(C)c12,7.09 & 3.54
FC(F)(F)C1CCCn2c(CNCc3ccco3)nnc21 (stereo not drawn),-11.31
Cc1nccc(C(=O)N2CCCN(Cc3cnn(C(C)C)c3)CC2)n1,-11.64
COc1cccc(OCCNC(=O)CN2CCN(C)CC2C)c1 (stereo not drawn),1.668
Cn1c(C(=O)N2CCOCC2)nc2c1CCN(c1ncccn1)C2,-15.21 & -3.613
CC(C)c1nn(C)c(Cl)c1CNCCn1cccn1,-7.049
O=C(O)C(F)(F)F.[H][C@@]12CNC(=O)[C@H](C)[C@]1([H])CN(CCc1ccccc1)C2,12.88
Cc1occc1CNC(=O)C1CCCN1C(=O)C1CC1 (stereo not drawn),-2.913
COc1cccc(CN2CCCCC2CN2CCOCC2)c1F (stereo not drawn),-8.192
CCOc1ccc(CN2CCC(c3ccn[nH]3)C2)cc1CO (stereo not drawn),-16.51
Cc1ccc2c(c1)N(C(=O)c1c[nH]c(C)cc1=O)CC(C)O2 (stereo not drawn),-4.522
Cc1ccc(NC(=O)Cn2ncc(SCC(N)=O)c(Cl)c2=O)c(F)c1,2.012
Cc1ccc2c(n1)N(CCN(C)C)CCN(C(=O)N1CCOCC1)C2,10.47
Cc1cc(C)n(-c2cccc(C(=O)Nc3n[nH]c(C4CCCO4)n3)c2)n1 (stereo not drawn),7.959 & -1.025
Cc1c(S(=O)(=O)N2CCCCC2c2nnc(-c3cccs3)o2)cnn1C (stereo not drawn),-14.12
O=C(C1CCCO1)N1CCCn2c(nnc2Cn2cccn2)C1 (stereo not drawn),-6.561 & 19.39
Cc1ccc(CN(CCCO)Cc2nc3ccccc3[nH]2)s1,8.256
CCOc1cc(C(=O)N2CCN(CC)CC2)cc2occc12,-6.329
Cc1cnn(C2CN(Cc3nc(-c4ccccc4C)no3)C2)c1,35.8
Cc1nc2c(c(NCCc3nc(C)c(Cl)s3)n1)CCNCC2,0.5022 & 2.378
O=C(O)CC1COCCN1Cc1ccccc1OCCc1ccccc1 (stereo not drawn),-4.7 & 3.135
CCn1c(C2CCNCC2)nn(Cc2ccc(C(=O)NC)o2)c1=O,-49.79 & -2.505
[H][C@@]12CCN(S(=O)(=O)c3cccs3)[C@]1([H])CCC(=O)N2CC,-41.14
COCC(=O)Nc1ccc(C)cc1-c1nc(C2CC2)no1,12.13

The last 4 entries again:

structure,percent effect
O=C(O)CC1COCCN1Cc1ccccc1OCCc1ccccc1 (stereo not drawn),-4.7 & 3.135
CCn1c(C2CCNCC2)nn(Cc2ccc(C(=O)NC)o2)c1=O,-49.79 & -2.505
[H][C@@]12CCN(S(=O)(=O)c3cccs3)[C@]1([H])CCC(=O)N2CC,-41.14
COCC(=O)Nc1ccc(C)cc1-c1nc(C2CC2)no1,12.13